Experimental data taken from publication PMC5481654, “Identification of the anti-mycobacterial functional properties of piperidinol derivatives” (British journal of pharmacology, 2017).

Tested on: M. smegmatis resistant mutants
Format: cell-based

Structure (SMILES)	increase of MIC of the mutants compared with wild-type	increased resistance (cross-resistance) compared with wild-type
CN1CCC(O)(c2ccccc2)C(C(=O)c2ccccc2)C1 (stereo not shown) [Compound 1]	fivefold	between twofold and threefold
CN(CCC(=O)c1ccccc1)CCC(=O)c1ccccc1 [Compound 2, 3,3′-(methylazanediyl)bis(1-phenylpropan-1-one)]	two- to threefold	twofold to threefold
